These results are taken from PMC5047748.

No constants are given. Whether binding was seen depends on the method and setting. In cells and extracts the contact can be indirect. For some assays here: Binding can be weak; no strength is given.

Targets include FatΔECD (Drosophila); FatΔECDΔ4-C (Drosophila); FatΔECDΔN-6 (Drosophila); Slimb (Drosophila).
Holding throughout (assay): co-IP; transfected S2R+ cells; RIPA lysis buffer (50 mM Tris pH 7.5, 150 mM NaCl, 1 mM EDTA, 1% NP40, 5% glycerol); 1 µg antibodies 1 hr then Protein A beads 2 hr at 4°C; western blot
The target in assay [1] is T1, Dlish (CG10933), expressed in S2 cells for co-IP (Drosophila melanogaster) (UniProt A1ZAY1).
T1 sequence: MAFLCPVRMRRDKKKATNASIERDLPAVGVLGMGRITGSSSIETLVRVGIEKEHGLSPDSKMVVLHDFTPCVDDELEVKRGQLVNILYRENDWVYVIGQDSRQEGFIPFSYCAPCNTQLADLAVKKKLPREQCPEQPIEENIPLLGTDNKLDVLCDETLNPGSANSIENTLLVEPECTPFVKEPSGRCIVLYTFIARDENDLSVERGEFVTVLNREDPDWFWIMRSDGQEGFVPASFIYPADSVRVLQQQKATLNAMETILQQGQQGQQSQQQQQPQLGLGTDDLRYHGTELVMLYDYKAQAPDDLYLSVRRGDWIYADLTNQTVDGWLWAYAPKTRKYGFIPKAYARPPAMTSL

The target in assay [2] is Dachs, expressed in S2 cells for co-IP (Drosophila melanogaster).
Assay [3] deals with FatΔECD-Hippo (Drosophila).
The target in assay [4] is FatΔECD-PH+Hippo (Drosophila).

Take “Dachs, expressed in S2 cells for co-IP (Drosophila melanogaster)”: the binding result in assay [1] is listed as “binds”.

B1: Dlish (CG10933), expressed in S2 cells for co-IP (protein, UniProt A1ZAY1 1-355)
chain: T1 sequence
In the case of B1, the binding entry is recorded as “binds” in assay [2]; “binds” with FatΔECD (Drosophila); “no binding” in assay [3]; “binds” in assay [4]; “no binding” with FatΔECDΔ4-C (Drosophila); “binds” with FatΔECDΔN-6 (Drosophila). Moreover, the binding result in the assay with Slimb (Drosophila) was “binds”.
